The supplement of paper PMC10849652
The list shows a part of the results.

Chains of the proteins cited; added tags and fusions are not shown. Lines headed by an entry give the natural chain unless they say otherwise; changes in a name come on top.
UniProt Q8IVM0: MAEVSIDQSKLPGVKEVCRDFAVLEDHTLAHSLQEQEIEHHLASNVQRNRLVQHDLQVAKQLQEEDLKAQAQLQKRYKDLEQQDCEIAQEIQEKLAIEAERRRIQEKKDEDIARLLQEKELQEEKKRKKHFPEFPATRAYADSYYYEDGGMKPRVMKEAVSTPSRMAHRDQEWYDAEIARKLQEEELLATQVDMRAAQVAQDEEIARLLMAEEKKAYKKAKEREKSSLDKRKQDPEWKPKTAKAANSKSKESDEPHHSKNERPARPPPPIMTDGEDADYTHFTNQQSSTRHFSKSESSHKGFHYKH
UniProt Q4VC31: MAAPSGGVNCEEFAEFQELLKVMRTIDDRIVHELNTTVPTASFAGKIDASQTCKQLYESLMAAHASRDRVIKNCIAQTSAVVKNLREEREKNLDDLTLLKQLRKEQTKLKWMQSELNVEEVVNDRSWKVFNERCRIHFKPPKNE
UniProt Q96MW1: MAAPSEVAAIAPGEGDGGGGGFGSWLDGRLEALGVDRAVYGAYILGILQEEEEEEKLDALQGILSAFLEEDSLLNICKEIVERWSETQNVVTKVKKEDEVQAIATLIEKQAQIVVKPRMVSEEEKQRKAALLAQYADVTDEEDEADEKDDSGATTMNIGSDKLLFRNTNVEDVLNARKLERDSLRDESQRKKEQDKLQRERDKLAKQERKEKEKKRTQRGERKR
UniProt P30260, whole entry, looked up: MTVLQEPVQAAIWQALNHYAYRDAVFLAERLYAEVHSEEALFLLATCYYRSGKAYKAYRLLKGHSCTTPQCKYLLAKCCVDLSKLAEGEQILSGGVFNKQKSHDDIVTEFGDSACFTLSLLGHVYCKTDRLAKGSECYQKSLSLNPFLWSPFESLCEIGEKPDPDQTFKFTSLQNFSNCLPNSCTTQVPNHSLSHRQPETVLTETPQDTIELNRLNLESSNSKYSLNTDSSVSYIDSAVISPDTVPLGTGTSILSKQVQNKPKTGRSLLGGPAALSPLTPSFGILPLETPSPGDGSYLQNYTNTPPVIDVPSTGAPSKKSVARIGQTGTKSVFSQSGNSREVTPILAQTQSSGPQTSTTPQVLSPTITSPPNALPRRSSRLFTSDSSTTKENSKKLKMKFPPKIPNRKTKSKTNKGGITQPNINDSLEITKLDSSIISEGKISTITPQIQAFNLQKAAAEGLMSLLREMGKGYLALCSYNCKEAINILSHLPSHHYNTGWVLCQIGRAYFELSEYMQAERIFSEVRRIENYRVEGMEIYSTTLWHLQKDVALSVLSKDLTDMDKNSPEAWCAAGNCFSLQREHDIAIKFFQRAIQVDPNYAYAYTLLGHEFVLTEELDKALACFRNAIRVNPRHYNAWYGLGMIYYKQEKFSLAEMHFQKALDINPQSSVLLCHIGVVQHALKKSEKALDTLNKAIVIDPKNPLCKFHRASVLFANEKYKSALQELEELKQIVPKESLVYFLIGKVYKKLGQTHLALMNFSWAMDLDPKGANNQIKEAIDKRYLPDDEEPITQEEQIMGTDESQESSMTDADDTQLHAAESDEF
UniProt P49589: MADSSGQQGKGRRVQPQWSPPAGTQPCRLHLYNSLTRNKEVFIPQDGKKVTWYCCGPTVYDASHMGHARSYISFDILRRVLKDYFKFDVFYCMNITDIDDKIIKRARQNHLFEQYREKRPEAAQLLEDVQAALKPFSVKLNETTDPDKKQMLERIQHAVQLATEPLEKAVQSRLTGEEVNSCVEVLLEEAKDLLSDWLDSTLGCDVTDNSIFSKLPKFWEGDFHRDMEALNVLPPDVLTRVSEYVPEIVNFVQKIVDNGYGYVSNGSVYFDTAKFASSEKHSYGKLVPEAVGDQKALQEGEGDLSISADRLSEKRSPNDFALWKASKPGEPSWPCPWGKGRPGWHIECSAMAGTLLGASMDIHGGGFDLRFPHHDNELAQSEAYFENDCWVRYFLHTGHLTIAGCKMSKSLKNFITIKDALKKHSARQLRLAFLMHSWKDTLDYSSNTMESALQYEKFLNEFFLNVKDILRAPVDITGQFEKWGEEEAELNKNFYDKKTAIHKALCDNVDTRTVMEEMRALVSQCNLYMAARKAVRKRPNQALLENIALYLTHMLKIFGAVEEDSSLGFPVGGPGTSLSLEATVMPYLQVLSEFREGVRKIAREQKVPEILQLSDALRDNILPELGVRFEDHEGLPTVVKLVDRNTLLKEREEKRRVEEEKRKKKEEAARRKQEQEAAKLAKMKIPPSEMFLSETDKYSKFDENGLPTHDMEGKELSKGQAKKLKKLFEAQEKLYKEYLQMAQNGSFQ
UniProt Q8N4T8: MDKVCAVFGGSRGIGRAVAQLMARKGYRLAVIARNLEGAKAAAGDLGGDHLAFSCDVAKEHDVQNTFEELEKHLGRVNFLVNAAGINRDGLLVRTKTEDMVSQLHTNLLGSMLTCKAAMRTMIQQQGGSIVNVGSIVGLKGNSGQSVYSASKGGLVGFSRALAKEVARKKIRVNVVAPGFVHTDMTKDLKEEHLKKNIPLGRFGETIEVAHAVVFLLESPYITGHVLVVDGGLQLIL
UniProt O95067, whole entry, looked up: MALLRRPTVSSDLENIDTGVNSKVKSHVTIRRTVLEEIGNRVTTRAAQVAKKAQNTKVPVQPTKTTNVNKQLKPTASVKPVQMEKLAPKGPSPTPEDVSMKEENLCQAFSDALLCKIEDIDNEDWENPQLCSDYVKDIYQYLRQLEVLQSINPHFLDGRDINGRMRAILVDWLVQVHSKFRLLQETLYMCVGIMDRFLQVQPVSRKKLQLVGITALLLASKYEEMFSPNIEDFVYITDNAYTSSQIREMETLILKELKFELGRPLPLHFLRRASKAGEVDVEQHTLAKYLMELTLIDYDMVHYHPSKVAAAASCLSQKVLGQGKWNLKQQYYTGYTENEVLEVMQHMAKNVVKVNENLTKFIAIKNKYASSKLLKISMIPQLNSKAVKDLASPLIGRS
UniProt Q6P1N0: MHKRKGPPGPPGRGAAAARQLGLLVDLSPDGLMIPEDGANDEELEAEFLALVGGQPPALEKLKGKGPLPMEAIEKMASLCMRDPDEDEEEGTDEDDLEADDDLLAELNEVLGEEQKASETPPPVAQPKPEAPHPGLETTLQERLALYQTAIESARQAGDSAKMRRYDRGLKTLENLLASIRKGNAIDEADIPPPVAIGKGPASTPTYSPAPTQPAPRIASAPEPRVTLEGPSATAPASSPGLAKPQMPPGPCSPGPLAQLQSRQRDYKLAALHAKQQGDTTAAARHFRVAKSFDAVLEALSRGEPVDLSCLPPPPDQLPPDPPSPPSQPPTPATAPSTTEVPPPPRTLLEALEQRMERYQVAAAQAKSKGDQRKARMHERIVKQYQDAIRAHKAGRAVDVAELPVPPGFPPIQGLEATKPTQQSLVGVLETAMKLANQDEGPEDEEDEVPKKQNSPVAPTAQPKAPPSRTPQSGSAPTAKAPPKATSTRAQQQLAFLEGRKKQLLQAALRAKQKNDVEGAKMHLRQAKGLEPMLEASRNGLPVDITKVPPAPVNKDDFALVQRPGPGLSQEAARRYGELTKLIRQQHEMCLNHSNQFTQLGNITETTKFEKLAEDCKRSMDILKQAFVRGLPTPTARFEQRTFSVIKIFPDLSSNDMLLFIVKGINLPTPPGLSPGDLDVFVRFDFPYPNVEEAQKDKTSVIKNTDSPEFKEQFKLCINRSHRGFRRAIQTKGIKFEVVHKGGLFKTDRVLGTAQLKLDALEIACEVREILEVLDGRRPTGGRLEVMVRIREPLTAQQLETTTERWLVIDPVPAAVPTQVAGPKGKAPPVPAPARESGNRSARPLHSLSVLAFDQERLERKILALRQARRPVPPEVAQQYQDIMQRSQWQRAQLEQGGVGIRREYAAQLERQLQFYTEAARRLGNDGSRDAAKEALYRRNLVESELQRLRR
UniProt Q567U6, whole entry, looked up: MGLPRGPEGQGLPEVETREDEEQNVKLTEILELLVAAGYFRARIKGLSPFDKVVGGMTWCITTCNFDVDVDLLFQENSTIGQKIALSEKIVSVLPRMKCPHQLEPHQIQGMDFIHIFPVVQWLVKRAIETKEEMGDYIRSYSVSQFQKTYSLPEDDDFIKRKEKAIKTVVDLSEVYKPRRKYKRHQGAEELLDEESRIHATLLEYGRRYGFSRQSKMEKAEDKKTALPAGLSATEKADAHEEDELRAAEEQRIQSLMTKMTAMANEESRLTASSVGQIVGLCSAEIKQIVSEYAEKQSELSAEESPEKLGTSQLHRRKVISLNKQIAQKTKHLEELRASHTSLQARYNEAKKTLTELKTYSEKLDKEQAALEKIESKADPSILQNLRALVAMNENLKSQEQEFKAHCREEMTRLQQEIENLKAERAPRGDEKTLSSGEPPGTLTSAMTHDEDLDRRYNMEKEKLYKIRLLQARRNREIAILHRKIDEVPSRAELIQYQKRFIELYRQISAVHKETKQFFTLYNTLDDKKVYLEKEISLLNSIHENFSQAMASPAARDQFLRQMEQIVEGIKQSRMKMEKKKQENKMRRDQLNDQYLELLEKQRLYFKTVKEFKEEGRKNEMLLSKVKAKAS
UniProt Q96A33: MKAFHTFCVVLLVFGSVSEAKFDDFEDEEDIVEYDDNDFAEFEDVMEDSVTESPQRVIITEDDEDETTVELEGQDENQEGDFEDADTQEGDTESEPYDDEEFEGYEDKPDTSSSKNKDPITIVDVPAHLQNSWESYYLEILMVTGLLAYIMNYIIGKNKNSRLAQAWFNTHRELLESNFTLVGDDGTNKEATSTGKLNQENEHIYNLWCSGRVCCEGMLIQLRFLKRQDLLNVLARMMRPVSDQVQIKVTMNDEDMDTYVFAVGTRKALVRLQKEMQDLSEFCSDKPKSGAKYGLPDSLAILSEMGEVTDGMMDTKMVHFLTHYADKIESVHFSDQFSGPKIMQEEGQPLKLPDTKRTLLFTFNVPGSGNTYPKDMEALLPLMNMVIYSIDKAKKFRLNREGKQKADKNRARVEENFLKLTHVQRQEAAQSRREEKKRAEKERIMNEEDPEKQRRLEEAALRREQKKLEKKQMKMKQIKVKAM
UniProt Q86WR0: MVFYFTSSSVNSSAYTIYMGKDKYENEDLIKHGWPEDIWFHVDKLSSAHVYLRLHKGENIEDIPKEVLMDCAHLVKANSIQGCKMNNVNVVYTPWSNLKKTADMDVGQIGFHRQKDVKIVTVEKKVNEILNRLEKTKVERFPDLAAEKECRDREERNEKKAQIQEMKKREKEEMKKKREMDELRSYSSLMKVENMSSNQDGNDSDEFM
UniProt P55212: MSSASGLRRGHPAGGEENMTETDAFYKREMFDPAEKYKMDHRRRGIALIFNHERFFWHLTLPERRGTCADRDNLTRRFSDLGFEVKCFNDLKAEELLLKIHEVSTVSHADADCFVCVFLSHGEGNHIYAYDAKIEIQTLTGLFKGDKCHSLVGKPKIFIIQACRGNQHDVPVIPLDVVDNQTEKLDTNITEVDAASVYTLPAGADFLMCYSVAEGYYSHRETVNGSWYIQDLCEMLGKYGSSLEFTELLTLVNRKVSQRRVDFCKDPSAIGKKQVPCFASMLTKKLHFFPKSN
UniProt Q9H6E4: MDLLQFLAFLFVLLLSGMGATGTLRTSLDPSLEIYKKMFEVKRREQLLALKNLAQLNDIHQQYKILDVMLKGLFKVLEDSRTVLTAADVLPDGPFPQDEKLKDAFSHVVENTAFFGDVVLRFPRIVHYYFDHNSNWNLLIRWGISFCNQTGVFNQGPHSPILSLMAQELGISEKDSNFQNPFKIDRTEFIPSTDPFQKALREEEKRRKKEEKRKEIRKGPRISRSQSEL
UniProt P50991: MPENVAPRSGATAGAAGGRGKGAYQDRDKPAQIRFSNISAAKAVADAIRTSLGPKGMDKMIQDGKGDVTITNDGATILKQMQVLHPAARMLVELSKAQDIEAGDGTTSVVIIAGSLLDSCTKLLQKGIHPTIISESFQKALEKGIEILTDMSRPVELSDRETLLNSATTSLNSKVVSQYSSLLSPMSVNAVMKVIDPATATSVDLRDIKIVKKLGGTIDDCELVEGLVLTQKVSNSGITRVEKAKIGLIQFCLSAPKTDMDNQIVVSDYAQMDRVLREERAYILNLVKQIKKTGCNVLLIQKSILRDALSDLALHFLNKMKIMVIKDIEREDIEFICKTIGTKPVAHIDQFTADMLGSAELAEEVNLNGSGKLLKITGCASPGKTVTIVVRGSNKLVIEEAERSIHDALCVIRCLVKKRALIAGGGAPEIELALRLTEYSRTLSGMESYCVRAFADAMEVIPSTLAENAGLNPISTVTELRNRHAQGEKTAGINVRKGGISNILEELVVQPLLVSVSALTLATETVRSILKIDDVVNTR
UniProt Q96BQ5: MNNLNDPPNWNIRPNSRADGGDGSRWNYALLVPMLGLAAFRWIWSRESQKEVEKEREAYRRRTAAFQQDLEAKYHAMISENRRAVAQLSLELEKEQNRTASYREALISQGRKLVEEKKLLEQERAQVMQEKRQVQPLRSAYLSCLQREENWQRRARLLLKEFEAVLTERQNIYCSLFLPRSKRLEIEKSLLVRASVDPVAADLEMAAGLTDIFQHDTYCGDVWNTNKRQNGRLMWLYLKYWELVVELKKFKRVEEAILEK

Experiments:
Test in all cases: log2 fold change, soluble protein after heating vs DMSO (PISA); higher = thermal stabilisation; K562 cells, 10 uM, 30 min; active = over 0.2 and 3.5 SD of the protein, either way, in both replicates (recomputed)
[1] = compound: CC[C@@H]1C(=O)N(C)c2cnc(Nc3ccc(C(=O)NC4CCN(C)CC4)cc3OC)nc2N1C1CCCC1
Method in brief: (§1)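 K562 cells (2×10^6 cells/mL) were treated with 10 μM compound for 30 min, and aliquots were heated for 3 min over 48°C-58°C. Pooled aliquots were extracted in PBS with 0.5% NP-40 at 4°C, and the supernatant after 21,000xg for 90 min was measured by TMTpro 16plex LC-MS/MS with channel sums equalised. Reported thermal stability, relative to control samples and from duplicates, is a log2 fold change.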

[2] = compound: CC[C@@H]1C(=O)N(C)c2cnc(Nc3ccc(C(=O)N[C@H]4CC[C@H](N5CCN(CC6CC6)CC5)CC4)cc3OC)nc2N1C(C)C [volasertib]
Method in brief: as §1

[3] = compound: CC[C@H](C)N1C=C(C2=C(C=C(C=C21)C3=CN=C(C=C3)N4CCNCC4)C(=O)NCC5=C(C=C(NC5=O)C)C)C
Method in brief: as §1

[4] = compound: CC[C@H](C)[C@@H](C(=O)N[C@@H]([C@@H](C)O)C(=O)N[C@@H](CC(C)C)C(=O)[C@]1(CO1)C)NC(=O)[C@H]([C@@H](C)CC)N(C)C(=O)C [epoxomicin]
Method in brief: as §1

[5] = compound: CCn1c(C(=O)N(C2CC2)C2CC2)cc2c3c(ncn3C)c(Nc3cc(C)n(C)n3)nc21
Method in brief: as §1

[6] = compound: CCn1cc(-c2ccnc3[nH]c(-c4cccc(CN(C)C)c4)cc23)c(-c2ccc(NC(=O)N(C)C)cc2)n1
Method in brief: as §1

[7] = compound: CN(C)CC(=O)Nc1ccc2[nH]c(=O)c3ccccc3c2c1
Method in brief: as §1

[8] = compound: CN(CCOC1=CC=C(C=C1)C[C@H]2C(=O)NC(=O)S2)C3=CC=CC=N3 (racemic) [rosiglitazone]
Method in brief: as §1

[9] = compound: CN1C2=C(C3=C1C(=O)N(N=C3)CC4=CC(=CC=C4)N)SC(=C2)S(=O)C
Method in brief: as §1

[10] = compound: CN1CCC(CNc2ccc3ncc(-c4cccc(OC(F)(F)F)c4)n3n2)CC1
Method in brief: as §1

[11] = compound: CN1CCN(CCOc2cc(OC3CCOCC3)c3c(Nc4c(Cl)ccc5c4OCO5)ncnc3c2)CC1 [saracatinib]
Method in brief: as §1

[12] = compound: CN1CCN(c2nc(C3=C(c4c[nH]c5ccccc45)C(=O)NC3=O)c3ccccc3n2)CC1 [sotrastaurin]
Method in brief: as §1

[13] = compound: CN1CC[C@H](c2c(O)cc(O)c3c(=O)cc(-c4ccccc4Cl)oc23)[C@H](O)C1 [alvocidib]
Method in brief: as §1

[14] = compound: CN1CCc2c(c3ccccc3n2Cc2ccc(C(=O)NO)cc2)C1 [Tubastatin A]
Method in brief: as §1

[15] = compound: CNC(=O)C1=CC=CC=C1NC2=NC(=NC=C2Cl)NC3=C(C=C(C=C3)N4CCOCC4)OC
Method in brief: as §1

[16] = compound: CNC(=O)c1ccc(Nc2ncc(C(F)(F)F)c(NCc3nccnc3N(C)S(C)(=O)=O)n2)cc1 [defactinib]
Method in brief: as §1

[17] = compound: CNCc1ccc(-c2[nH]c3cc(F)cc4c3c2CCNC4=O)cc1 [rucaparib]
Method in brief: as §1

[18] = compound: CNc1nc(-c2ccc3c(N)n[nH]c3c2)cc(N2C[C@@H](C(=O)NC3CCCCC3)CC[C@H]2C)n1
Method in brief: as §1

[19] = compound: COC(=O)N[C@@H](C)CNc1nccc(-c2cn(C(C)C)nc2-c2cc(Cl)cc(NS(C)(=O)=O)c2F)n1 [encorafenib]
Method in brief: as §1

[20] = compound: COC(=O)[C@H](CCSC)NC(=O)C1=C(C=C(C=C1)NC[C@H](CS)N)C2=CC=CC=C2
Method in brief: as §1

Measured: log2 fold change

CCDC50 (UniProt Q8IVM0)
inactive: [1] 0.019 | [2] 0.122 | [3] -0.041 | [4] 0.027 | [5] 0.04 | [6] 0.06 | [7] -0.037 | [8] 0.067 | [9] -0.023 | [10] -0.011 | [11] -0.026 | [12] 0.071 | [13] 0.023 | [14] -0.011 | [15] -0.02 | [16] 0.036 | [17] -0.031 | [18] -0.03 | [19] -0.024 | [20] 0.018

CCDC58 (UniProt Q4VC31)
inactive: [1] 0.029 | [2] 0.062 | [3] 0.003 | [4] 0.006 | [5] 0 | [6] 0.012 | [7] -0.043 | [8] -0.003 | [9] -0.006 | [10] -0.065 | [11] 0.011 | [12] 0.06 | [13] 0.023 | [14] -0.029 | [15] 0.051 | [16] 0.017 | [17] -0.03 | [18] -0.026 | [19] -0.076 | [20] 0.07

CCDC43 (UniProt Q96MW1)
inactive: [1] -0.034 | [2] -0.008 | [3] -0.03 | [4] -0.004 | [5] -0.041 | [6] 0.073 | [7] -0.001 | [8] 0.009 | [9] -0.094 | [10] 0.066 | [11] 0.081 | [12] 0.008 | [13] -0.108 | [14] 0.01 | [15] -0.043 | [16] -0.047 | [17] -0.118 | [18] -0.049 | [19] 0.039 | [20] 0.025

CDC27 isoform 2 (UniProt P30260)
inactive: [1] -0.013 | [2] -0.053 | [3] 0.033 | [4] -0.007 | [5] 0.015 | [6] 0.014 | [7] -0.019 | [8] 0.013 | [9] -0.005 | [10] 0.014 | [11] -0.038 | [12] -0.03 | [13] -0.006 | [14] 0.034 | [15] 0.035 | [16] -0.014 | [17] 0.019 | [18] 0.025 | [19] 0.065 | [20] -0.005

CARS isoform 3 (UniProt P49589)
inactive: [1] -0.012 | [2] -0.001 | [3] 0.009 | [4] -0.001 | [5] 0.01 | [6] -0.012 | [7] -0.017 | [8] 0.014 | [9] -0.054 | [10] -0.048 | [11] -0.023 | [12] 0.039 | [13] -0.009 | [14] -0.027 | [15] -0.017 | [16] -0.018 | [17] -0.06 | [18] 0 | [19] 0.004 | [20] 0.01

CBR4 (UniProt Q8N4T8)
inactive: [1] 0 | [2] 0.023 | [3] 0.042 | [4] -0.055 | [5] -0.012 | [6] -0.038 | [7] -0.011 | [8] -0.043 | [9] -0.033 | [10] 0.003 | [11] -0.018 | [12] -0.01 | [13] -0.008 | [14] -0.004 | [15] -0.016 | [16] 0.011 | [17] 0.054 | [18] -0.071 | [19] -0.012 | [20] -0.009

CCNB2 (UniProt O95067)
inactive: [1] 0.037 | [2] 0.112 | [3] -0.004 | [4] 0.02 | [5] -0.033 | [6] -0.107 | [7] 0.026 | [8] 0.085 | [9] -0.057 | [10] -0.171 | [11] 0.008 | [12] -0.131 | [13] -0.05 | [14] 0.087 | [15] 0.014 | [16] -0.113 | [17] -0.056 | [18] 0.008 | [19] -0.051 | [20] -0.022

CC2D1A (UniProt Q6P1N0)
inactive: [1] -0.141 | [2] -0.111 | [3] 0.03 | [4] 0.067 | [5] -0.064 | [6] -0.025 | [7] -0.001 | [8] 0.015 | [9] -0.027 | [10] -0.028 | [11] -0.046 | [12] -0.027 | [13] -0.047 | [14] 0.015 | [15] -0.028 | [16] -0.06 | [17] 0.113 | [18] 0.08 | [19] 0.021 | [20] -0.087

Fetched one by one from above (2):
CDC27 isoform 2 (UniProt P30260)
inactive: [1] -0.013 | [2] -0.053 | [3] 0.033 | [4] -0.007 | [5] 0.015 | [6] 0.014 | [7] -0.019 | [8] 0.013 | [9] -0.005 | [10] 0.014 | [11] -0.038 | [12] -0.03 | [13] -0.006 | [14] 0.034 | [15] 0.035 | [16] -0.014 | [17] 0.019 | [18] 0.025 | [19] 0.065 | [20] -0.005

CC2D1A (UniProt Q6P1N0)
inactive: [1] -0.141 | [2] -0.111 | [3] 0.03 | [4] 0.067 | [5] -0.064 | [6] -0.025 | [7] -0.001 | [8] 0.015 | [9] -0.027 | [10] -0.028 | [11] -0.046 | [12] -0.027 | [13] -0.047 | [14] 0.015 | [15] -0.028 | [16] -0.06 | [17] 0.113 | [18] 0.08 | [19] 0.021 | [20] -0.087

Following part.

CCNA2 (UniProt P20248)
inactive: [1] 0.034 | [2] 0.043 | [3] -0.007 | [4] 0.024 | [5] 0.022 | [6] -0.067 | [7] -0.004 | [8] 0.004 | [9] -0.041 | [10] 0.024 | [11] 0.073 | [12] -0.013 | [13] -0.003 | [14] 0 | [15] -0.085 | [16] -0.059 | [17] -0.056 | [18] -0.009 | [19] 0.024 | [20] 0.019

CCDC93 (UniProt Q567U6)
inactive: [1] -0.072 | [2] -0.138 | [3] 0.108 | [4] -0.01 | [5] -0.041 | [6] 0.002 | [7] -0.03 | [8] 0.037 | [9] 0.008 | [10] -0.126 | [11] -0.068 | [12] -0.064 | [13] 0.005 | [14] 0.045 | [15] -0.034 | [16] 0.001 | [17] 0.074 | [18] 0.097 | [19] -0.004 | [20] 0.026

CCDC47 (UniProt Q96A33)
inactive: [1] -0.076 | [2] -0.082 | [3] 0.009 | [4] 0.022 | [5] -0.004 | [6] -0.014 | [7] 0.019 | [8] 0.024 | [9] -0.063 | [10] -0.202 | [11] -0.017 | [12] 0.014 | [13] -0.009 | [14] 0.019 | [15] 0.004 | [16] -0.045 | [17] -0.03 | [18] -0.022 | [19] -0.012 | [20] -0.007

CCDC25 (UniProt Q86WR0)
inactive: [1] 0.03 | [2] -0.022 | [3] 0.085 | [4] 0.023 | [5] -0.072 | [6] -0.057 | [7] 0.013 | [8] 0.058 | [9] -0.022 | [10] -0.077 | [11] -0.02 | [12] -0.069 | [13] -0.118 | [14] 0.036 | [15] -0.031 | [16] -0.076 | [17] 0.049 | [18] 0.101 | [19] 0.01 | [20] -0.027

CASP6 (UniProt P55212)
inactive: [1] 0.011 | [2] 0.065 | [3] -0.024 | [4] 0.044 | [5] 0.031 | [6] 0.011 | [7] 0.011 | [8] -0.087 | [9] -0.083 | [10] -0.012 | [11] 0.009 | [12] -0.009 | [13] -0.02 | [14] -0.047 | [15] -0.056 | [16] 0.001 | [17] -0.033 | [18] -0.009 | [19] -0.029 | [20] 0.004

CCDC134 (UniProt Q9H6E4)
inactive: [1] 0.043 | [2] 0.004 | [3] 0.006 | [4] -0.022 | [5] -0.012 | [6] -0.028 | [7] -0.036 | [8] 0.029 | [9] 0.101 | [10] 0.055 | [11] -0.035 | [12] -0.049 | [13] 0.029 | [14] 0.028 | [15] 0.025 | [16] 0.03 | [17] -0.004 | [18] 0.006 | [19] 0.033 | [20] -0.002

CCT4 (UniProt P50991)
inactive: [1] -0.004 | [2] 0.004 | [3] -0.006 | [4] 0.001 | [5] -0.021 | [6] 0.017 | [7] 0.01 | [8] 0.005 | [9] -0.03 | [10] -0.001 | [11] 0.009 | [12] -0.026 | [13] 0.015 | [14] -0.025 | [15] -0.033 | [16] 0 | [17] -0.053 | [18] 0.009 | [19] 0.042 | [20] -0.002

CCDC127 (UniProt Q96BQ5)
inactive: [1] 0.026 | [2] 0.071 | [3] 0.026 | [4] 0.074 | [5] -0.004 | [6] 0.112 | [7] -0.022 | [8] -0.08 | [9] -0.019 | [10] 0.147 | [11] -0.016 | [12] 0.144 | [13] 0.049 | [14] 0.023 | [15] 0.032 | [16] -0.016 | [17] -0.022 | [18] -0.065 | [19] -0.056 | [20] 0.028
